Among the data in PubChem BioAssay AID1508600 (Functional Genomics Laboratory (NCATS/FGL), 2020) are z-score values, retold here.

About 3,700 (7%) of roughly 53,000 sequences were called active.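 The calls were made as follows: active = gene knockdowns whose robust z-score for IL-1 alpha signal is at least 2 or at most -2, so actives lie on both sides; inactive = the rest.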 Some of the results follow.

The assay can be described thus: Components of the Cytosolic LPS Sensing Pathway: Gene Identification via Genome-wide siRNA Screen.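 Also: robust z of the log signal after scaling to non-targeting control siRNA wells of the plate.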 The conditions noted are these: RAW264.7 macrophages, IL-1a HTRF, actives lie on both sides, screened at 100 nM (by protocol), cells primed 5 h with Pam3CSK4 first. Put shortly: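 RAW264.7; siRNA 100 nM final, RNAiMAX, 48h 37 degrees C; Pam3CSK4 5 h; LipidA + TransIT-TKO 24 h; IL-1a HTRF; CellTiter-Glo viability; robust z vs negative-control median.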
Background: In TR-FRET formats the signal depends on donor and acceptor labels being close together.
For GCGUGGAUAACACUGUUGUTT against Hira, the z-score is inactive: -0.391.

Turning to GACGAAUAUCAUCUCACACTT against Olfr875, the z-score was inactive: 0.901.

Regarding GGAGCUCUUUGACUUCUUGTT against Uqcrh, the z-score was inactive: 0.359.

Take GACGUGAUCUGCUUUUACUTT against Gpr137: the z-score is inactive: 0.0435.

For GGAAGGACAGACAGACAAGTT against Pxt1, the z-score is inactive: 0.165.

As for GGAAAAAUAGGUCGAAUGATT against Arntl, the z-score was inactive: 0.229.

On to GGGUUGUGUCUGAAGAGAATT against Jade1, for which the z-score is inactive: -0.57.

As for CCGUAUCAUCCAGUUUAACTT against Gnpda1, the z-score was inactive: -0.429.

As for CCGAAUUUCUGCAUUUAACTT against Cnbp, the z-score is inactive: 0.292.

Regarding GGCUGACAAGGCCAAAUACTT against Fam110b, the z-score was inactive: 1.23.

As for GGACAUGGAAAACAAAAUCTT against Capzb, the z-score is inactive: 0.645.

For the sequence GGAAACUUGAUUAUUUAGGTT against Vrk2, the z-score was inactive: 0.915.

Consider GGCUGCUGUUGUGCCUAAATT against Zdhhc12, for which the z-score was inactive: 0.299.

On to GGUAUUUUUGCUCAGUGCATT against Tmem266, for which the z-score is inactive: -0.22.

For GCUGAGACUUCGAGCCUAUTT against Polr2c, the z-score was inactive: -0.976.

Turning to GGAGGAAUCAUAUAAUCUCTT against Pnpla3, the z-score is inactive: 1.22.

On to GGGCUCUGUGGAAAUCAUGTT against Rnf187, for which the z-score was inactive: -0.043.

Turning to GGCUCUGGCUGAUUUUGCATT against Prcp, the z-score was inactive: 1.36.

As for GGCAUUAAAUGAUUACAAGTT against Mtf2, the z-score was inactive: 0.549.

For GGUCAGAGAAAUGAUGUCUTT against Osbpl11, the z-score is inactive: -1.77.

On to GGUUUCCUGACAGAAAACCTT against Wdr64, for which the z-score was inactive: 0.0573.

For CCGAGGAUUUGAAACAGUATT against Pir, the z-score was inactive: -0.858.

On to GGUUCAGCCUGAAAUAGAGTT against Syt5, for which the z-score is inactive: -0.697.

For CCAAGUUUCCCGGUGAUAATT against Pla2g2a, the z-score was inactive: -1.5.

Take GCCGGGAAGACAAUAACUGTT against Il10: the z-score was inactive: 0.954.

With GGUGUGUGUUCCACUAAAGTT against Ptpn18, the z-score was inactive: -1.41.

With GCUAUGAGACAAGGCUUUCTT against Gbp9, the z-score is inactive: -0.185.

For GGUAUCUGACCUGAGCAUGTT against Msln, the z-score is inactive: -0.394.

As for GGAUUCUAGGGUUGACAUUTT against Krt73, the z-score was inactive: 0.805.

With GGUUAUUAUGACCAAGAAATT against Sf3b1, the z-score was active: -2.71.

For the sequence “GGAGCAAAGGGUAGGGAAATT against 1700052K11Rik”, the z-score was inactive: 0.293.

GGUCUGUGAGGAACAAAAGTT against Ccnd2: the z-score is active: -2.26.

Turning to CGAUGGAAGUUUAAACCUCTT against Htr1a, the z-score is inactive: 0.326.

GCACUCAAGGUUUUACUGUTT against Satb1: the z-score is inactive: -0.356.

On to GCAAGUGUAGAUAAAGUAUTT against Msi2, for which the z-score was inactive: 0.751.

Consider GGAUAUUCAGGACUUUGAUTT against Slc2a1, for which the z-score is inactive: 0.0675.

For GCAAUCUUGAGUUUGCACATT against Haghl, the z-score is inactive: 0.377.

As for GGACUAUUAGCUCGAACUUTT against Dlx2, the z-score was inactive: 0.471.

Turning to CGGAUAAUCAACAUUUCCUTT against Plekha7, the z-score is inactive: 0.775.

For the sequence GGAAGGUUUGUUGUUUUGUTT against Apon, the z-score is inactive: -1.58.

Turning to GGUAAAGAAAGACGACCACTT against Plpp2, the z-score is inactive: 0.00336.

For the sequence GGAAGAUCCUCGAUAGUCATT against Rgs7, the z-score is inactive: 1.2.

Regarding GGAGAAAAAUGUUGAUGAUTT against Ccer1, the z-score is inactive: -1.74.

In the case of GCACUAUCGUUUUUCAAUCTT against Tmtc3, the z-score was inactive: -0.617.

As to “GGAAUUGACAUAUUCAGUCTT against 9130221H12Rik”, the z-score is inactive: -1.13.

In the case of GGGAUCCAGUUGAGGAUCUTT against Sowahb, the z-score is inactive: -0.0561.

Consider GGUCUUCAGGAACCUGAGATT against Pip4k2c, for which the z-score is inactive: -1.82.

Consider CGUAAAUGGCGAUUGAUCUTT against Mctp1, for which the z-score is inactive: -0.711.

In the case of GGACUUCUCUGUGAAGAUGTT against Ctsf, the z-score was inactive: -0.129.

In the case of CGGCCUUCAUCUGCCUUUUTT against Olfr1222, the z-score is inactive: 0.475.

Take GGGCUUCUUCAAGAGAACGTT against Nr4a3: the z-score is inactive: 1.22.

On to GACCUUUCUCUUCUUGGCUTT against Olfr434, for which the z-score was active: -2.1.

Consider GGCCAAGUUCCAAACAAGATT against Zfp109, for which the z-score was inactive: 1.09.

Take CCCUGACUUGUCCUUACAATT against Trem3: the z-score is inactive: -0.831.

On to CCAAUAAGGAAAAAUCUGGTT against Cenpc1, for which the z-score was inactive: -0.291.

For the sequence GGAGGACUUCCAGAUCCAATT against Robo4, the z-score is inactive: 0.104.

In the case of GGAGAUGAACCAUUAUGUCTT against Mycbp, the z-score is active: -2.03.

As for GCUUUUCACACGAAAAGGATT against Samd4b, the z-score is inactive: -0.521.

As for GGAAUUUAUUGAGGUCUUUTT against Plcl2, the z-score is inactive: 0.0305.

In the case of GGUUCACGGUUUAUAAAGUTT against Sgk3, the z-score was inactive: -0.652.

Turning to CCCUGUUUCUUCUCAAAGUTT against Mrgpra2b, the z-score is inactive: -0.0171.

GGUGCUUCUUCACUCCAUGTT against Vars2: the z-score is inactive: -0.244.

GGAGUCUUACAUAGGAAAATT against Cckbr: the z-score is inactive: 0.569.

GCAUGAUUACCAGAACCACTT against Fcgr2b: the z-score is inactive: 0.225.

With GGACAACUCUCAUGUAAUATT against Tbck, the z-score was inactive: -0.407.

Take GGCCAAACAUAAUUUUGAGTT against Cwf19l2: the z-score is inactive: -0.232.

For the sequence GGCAUCCUGAAAAACAAAGTT against Celsr1, the z-score is inactive: -0.0587.

Turning to GGAAAUCAAGCCCUACAUCTT against Col4a2, the z-score is inactive: 0.152.

For GGCUUGCUUUGCUUCCCUUTT against Med28, the z-score was inactive: -1.24.

Regarding GGGCAUCAUCCUGAAAGAGTT against Cenpb, the z-score was inactive: -1.05.

With GGUGUGCAUCAAGCGACUGTT against Cacng6, the z-score was active: 2.1.

On to UGUGGACAAGGACUACUAATT against Ldoc1, for which the z-score was inactive: -1.15.

With GCUUAUUGAACUAUUGUUGTT against Trpc4, the z-score is active: 3.72.

Take GGAGAAGGUCGAAAAGCCUTT against Rybp: the z-score is active: -2.01.

Regarding GCUUGAUUGUCAGUUGGAATT against Tcp11, the z-score was inactive: -0.364.

As for GAGAAGUCAAAACUGUCAUTT against Ear1, the z-score is inactive: -0.212.

With GGUGAUGUAAGCGUGAUUATT against Zfp763, the z-score was inactive: -0.431.

For CCAUGUAUGCCUCAACAUATT against Ltf, the z-score was inactive: 0.517.

In the case of GGUAGAGCAUCAGUAUCUATT against Tex16, the z-score was inactive: -0.47.

Regarding CGACAAAAGUACUUCGAGCTT against Scrib, the z-score was inactive: -0.924.

As for GCAAUGGUUCAGUAUGUACTT against Tpgs2, the z-score was active: -2.01.

As for GGAAAAAGCUGUGAUACUUTT against Hspbap1, the z-score is inactive: -0.895.

Consider CGCUGCCUAAACAAGAUUATT against Cacna1f, for which the z-score was active: 3.28.

As for CCAUUGGAGGAUAAGUUUUTT against Mtm1, the z-score is inactive: -0.0988.

AUGGGAGAAUCAGCAGAACTT against Set: the z-score was active: -2.77.

As for CCCUGGAUUGAGGAUCGUUTT against Mrgpra8, the z-score was inactive: -1.14.

As for GGCUGCCUAACUGAUAACATT against Inpp4b, the z-score is inactive: 0.24.

For GGAAGUUGUUGGGAACUUCTT against Afmid, the z-score is inactive: -0.401.

On to GGUAGUCAGGGCUGACUUATT against Tsen15, for which the z-score is inactive: -0.304.

As for GCCAAGGACAACUAUUUUGTT against Kcnj9, the z-score was inactive: 0.048.

CCCAGGAAGCCUUUGAUCUTT against Gmnn: the z-score is inactive: 0.263.

Consider GGAAAGUUCCAAGUUACCATT against Arl13b, for which the z-score is inactive: 1.18.

CGGUAUUAGUAGCAAUGGUTT against Tmem45a2: the z-score is inactive: 1.6.

With GCGAACUCGGGAAACAACUTT against Rnf4, the z-score is inactive: -0.0525.

With “GCACUCGAAAGCGAUGUAATT against 9130019P16Rik”, the z-score was inactive: -0.232.

GGAGGAACAGCUCAGAUGUTT against Olfr524: the z-score was inactive: 0.562.

Consider GCGAACAUCCAGAGAAUGUTT against Mtcl1, for which the z-score was inactive: -0.719.

As for GGAGAGUGCAGUGAUUGCCTT against Mybpc1, the z-score was inactive: -1.23.

On to “GGGUUUUGGAGACAGUAUUTT against 2700081O15Rik”, for which the z-score is inactive: 0.631.

As for GGCCAUGCUACAAGUUCAATT against Trem1, the z-score is inactive: 0.258.

With CCGGGUAGCUACUGUUAUGTT against Olfr365, the z-score was inactive: -0.76.

As for “CGAGACUAGAUUCGUGCAGTT against D930048N14Rik”, the z-score is inactive: 0.457.

Regarding GGUUCCACUAAUCUUUUUATT against Mark3, the z-score was inactive: 0.696.

For the sequence GGAAACUUGCUCAAUUUCCTT against Sec22a, the z-score is inactive: -0.782.

As to GGAGACUUUGACCAAAUUATT against Gm3579, the z-score was inactive: -1.15.

Consider CCCUUUAUAUCGAUUUCGGTT against Spata2, for which the z-score is inactive: 0.85.

Take GGACAUAGACUUAAGUAGUTT against Casp8ap2: the z-score was inactive: 0.657.
